Earlier results in patent US7105566B2, “Methods of treatment during vascular procedures” (Allergan, Inc., priority 2002, dated 2006).
For at least one compound, name, drawing or mass did not settle the structure.

How the values were obtained:
cholesterol fed rabbits = conditions: Dol et al. 1996; cited from earlier work
Zucker fatty rat model = conditions: Shinohara et al. 1998; cited from earlier work

SMILES | effect on myointimal hyperplasia following carotid artery injury (cholesterol fed rabbits) | effect on intimal formation following balloon injury (Zucker fatty rat model)
CCC(C)(C)C(=O)O[C@H]1C[C@@H](C)C=C2C=C[C@H](C)[C@H](CC[C@@H]3C[C@@H](O)CC(=O)O3)[C@H]21 [Simvistatin] | inhibit myointimal hyperplasia | 
Cc1c(C)c2c(c(C)c1O)CCC(C)(COc1ccc(CC3SC(=O)NC3=O)cc1)O2 (centres unmarked) [troglitazone] |  | suppressing intimal formation
